From PubChem BioAssay (EPA / NIEHS) come the findings set out here.

Chains of the proteins cited; added tags and fusions are not shown. Lines headed by an entry give the natural chain unless they say otherwise; changes in a name come on top.
UniProt P10275: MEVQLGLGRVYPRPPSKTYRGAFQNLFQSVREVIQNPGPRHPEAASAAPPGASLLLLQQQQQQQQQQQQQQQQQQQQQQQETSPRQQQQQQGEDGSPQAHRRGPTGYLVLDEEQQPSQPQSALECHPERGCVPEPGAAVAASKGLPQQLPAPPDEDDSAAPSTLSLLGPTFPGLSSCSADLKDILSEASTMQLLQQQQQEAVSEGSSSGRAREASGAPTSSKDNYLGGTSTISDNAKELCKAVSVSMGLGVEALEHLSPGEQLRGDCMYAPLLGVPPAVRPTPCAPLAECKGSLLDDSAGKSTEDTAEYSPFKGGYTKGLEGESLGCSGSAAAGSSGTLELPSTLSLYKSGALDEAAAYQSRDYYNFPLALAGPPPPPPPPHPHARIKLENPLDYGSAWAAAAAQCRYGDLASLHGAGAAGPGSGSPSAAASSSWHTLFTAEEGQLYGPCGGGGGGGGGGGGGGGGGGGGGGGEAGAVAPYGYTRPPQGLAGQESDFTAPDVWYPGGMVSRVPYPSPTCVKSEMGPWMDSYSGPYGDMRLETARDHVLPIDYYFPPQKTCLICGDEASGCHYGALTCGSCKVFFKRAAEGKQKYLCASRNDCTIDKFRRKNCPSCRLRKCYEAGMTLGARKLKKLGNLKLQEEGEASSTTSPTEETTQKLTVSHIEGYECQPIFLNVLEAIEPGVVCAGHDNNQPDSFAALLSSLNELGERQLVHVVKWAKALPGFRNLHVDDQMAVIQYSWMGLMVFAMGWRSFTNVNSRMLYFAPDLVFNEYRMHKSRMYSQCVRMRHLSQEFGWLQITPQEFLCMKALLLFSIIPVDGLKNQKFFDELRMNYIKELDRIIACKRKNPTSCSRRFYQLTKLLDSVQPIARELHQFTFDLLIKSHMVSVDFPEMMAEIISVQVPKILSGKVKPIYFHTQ
UniProt P06401: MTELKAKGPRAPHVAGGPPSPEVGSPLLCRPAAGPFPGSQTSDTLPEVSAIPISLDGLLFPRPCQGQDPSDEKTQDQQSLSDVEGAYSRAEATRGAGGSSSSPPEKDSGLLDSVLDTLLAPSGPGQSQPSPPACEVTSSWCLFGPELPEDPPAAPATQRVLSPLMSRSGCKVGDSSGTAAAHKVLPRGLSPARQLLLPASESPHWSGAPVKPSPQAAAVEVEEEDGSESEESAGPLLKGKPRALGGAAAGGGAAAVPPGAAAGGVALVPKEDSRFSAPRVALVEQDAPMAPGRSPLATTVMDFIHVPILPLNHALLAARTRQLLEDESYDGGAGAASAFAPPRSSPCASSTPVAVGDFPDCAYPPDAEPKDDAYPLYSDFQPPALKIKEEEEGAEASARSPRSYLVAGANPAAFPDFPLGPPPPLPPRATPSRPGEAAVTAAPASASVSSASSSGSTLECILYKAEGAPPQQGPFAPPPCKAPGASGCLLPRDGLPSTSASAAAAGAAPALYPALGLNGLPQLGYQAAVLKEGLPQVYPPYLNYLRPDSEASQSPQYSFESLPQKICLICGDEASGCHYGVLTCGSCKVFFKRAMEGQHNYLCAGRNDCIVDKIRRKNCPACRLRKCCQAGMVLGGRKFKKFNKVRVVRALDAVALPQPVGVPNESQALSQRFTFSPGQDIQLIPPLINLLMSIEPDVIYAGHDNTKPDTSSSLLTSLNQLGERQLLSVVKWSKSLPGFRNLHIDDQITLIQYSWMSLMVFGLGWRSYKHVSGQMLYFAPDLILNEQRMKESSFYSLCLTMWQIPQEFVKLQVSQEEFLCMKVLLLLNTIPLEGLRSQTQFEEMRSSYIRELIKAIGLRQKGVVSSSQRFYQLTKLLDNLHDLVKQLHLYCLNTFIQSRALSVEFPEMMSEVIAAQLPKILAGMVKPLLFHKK

For some assays here: Shown are results outside the selection of hits, which stands elsewhere. Records with an inconclusive call do not appear. This is a selection; strong and weak results do not stand in their true shares. The source holds several records for some structures; these can differ, active in one and inactive in another. Activity calls are given as the source filed them. How the source made its calls, unless noted: active means hit-call score of the fitted dose curve at least 0.9, where 1 is the maximum; inconclusive means response in the unintended direction; inactive means score below 0.9.

The target of one assay is AR (gene 367) (UniProt P10275). Nature of the assay: ACEA_AR_antagonist_80hr: ACEA Biosciences xCELLigence Real-Time Cell Analysis on Androgen Receptor Antagonism for Proliferation (AID 2283787).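 Further: 22Rv1 human prostate cancer cells with growth followed by electrical impedance; hits lower the impedance growth signal relative to DMSO.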 In a few lines:
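Impedance-based real-time growth of 22Rv1 prostate cells, read 80 h after dosing. Eight concentrations, 1:4 series, top 100 uM final (0.5% DMSO), n = 2; signal decrease scored against DMSO.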

In assay [1] the target is Ratio of Nucleoli Translocation and Cytoplasm, AR (gene 367) (UniProt P10275). Nature of the assay: UPITT_HCI_U2OS_AR_TIF2_Nucleoli_Cytoplasm_Ratio_Antagonist: University of Pittsburgh U2OS Androgen Receptor-Transcriptional Intermediary Factor 2 (AR-TIF2) Antagonism High Content Imaging Assay for Ratio of Nucleoli Translocation and Cytoplasm (AID 2283999).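 Further: antagonists lower the DHT-driven ratio of nucleolar to cytoplasmic red signal.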 In a few lines: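 Compounds were added to U2OS cells carrying red-fluorescent AR and green-fluorescent TIF2, first at 20 uM, with hits confirmed in triplicate and titrated from 0.195 to 50 uM. Nucleolar versus cytoplasmic AR-RFP fluorescence was then quantified by imaging, with analysis relative to DHT.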

Assay [2] can be described thus: ATG_XTT_Cytotoxicity_XSP1: Cytotoxicity Assessment in the Attagene TRANS-FACTORIAL Multi-Species (XSP1) HepG2 Assay (AID 2283810). The method, boiled down:
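XTT viability readout taken at 24 hours post-dosing in HepG2 liver cells co-treated with 3 nM 6-alpha-fluorotestosterone. Signal loss relative to DMSO controls reflects cytotoxicity.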

Assay [3] concerns the target Nuclear receptor subfamily 1 group I member 2 (Mus musculus) (UniProt O54915). As to the kind of experiment: ATG_mPXR_XSP2: Attagene TRANS-FACTORIAL Multi-Species (XSP1) HepG2 Assay for mouse Pregnane X Receptor (PXR) (AID 2283831). In a few lines: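 Transient HepG2 transfection, multiplexed GAL4-UAS reporters, NR-GAL4 chimeras. 24 h compound exposure. Readout: reporter mRNA, RT-PCR, fluorescent capillary electrophoresis; positive direction vs DMSO baseline.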

For assay [4], the system named is zebrafish Estrogen Receptor (ER2a), gene 317734. As to the kind of experiment: ATG_zfER2a_XSP2: Attagene TRANS-FACTORIAL Multi-Species (XSP2) HepG2 Assay for zebrafish Estrogen Receptor (ER2a) (AID 2283818).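 Further: hits raise reporter mRNA so AC50 reflects activation of zebrafish ER2a.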 The method, boiled down: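 Multiplexed trans-reporter readout: RT-PCR then capillary electrophoresis of reporter transcripts after 24 h compound treatment. Human HepG2 carries transfected zebrafish ER2a-Gal4 chimera; 3 nM 6-alpha-fluorotestosterone plus 1.5 nM norgestrel present. Induction scored against DMSO.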

A short description of assay [5]: CEETOX_H295R_DOC_noMTC: CeeTox H295R High-throughput Steroidogenesis Assay for DOC, maximum tolerated concentration (MTC) filtered results only (AID 2283918; active means hit-call score of the fitted dose curve at least 0.9, where 1 is the maximum; inactive means score below 0.9). Conditions: actives raise or lower the signal. In a few lines:
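11-Deoxycorticosterone secreted by human adrenal H295R cells quantified by HPLC-MS/MS after 48 h chemical exposure (0.1% DMSO), following 48 h 10 uM forskolin prestimulation. Concentrations not filtered by MTT-derived MTC; bidirectional fitting.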

Another assay addresses PGR (gene 5241) (UniProt P06401). As to the kind of experiment: TOX21_PR_LUC_Followup_Agonist: Tox21 HEK293 Progesterone Receptor (PR) Agonism Luciferase Follow-Up Assay (AID 2283937; active means hit-call score of the fitted dose curve at least 0.9, where 1 is the maximum; inactive means score below 0.9). In a few lines:
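Seed HEK293-PR-A-luc cells, wait 5 h, add compounds in DMSO, incubate 16 h at 37C, add ONE-Glo, read luminescence after 30 min. Activity is increase over DMSO controls; run with a viability counter-screen.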

Assay [6] is described as follows: TOX21_PR_LUC_Followup_Agonist_viability: Viability Assessment in the Tox21 HEK293 Progesterone Receptor (PR) Agonism Luciferase Follow-Up Assay (AID 2283941).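 Further: loss of signal means cytotoxicity so actives lower viability.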 In a few lines:
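Multiplexed viability endpoint of the PR agonist luciferase follow-up: HEK293-PR-A-luc cells treated 16 h at 37C, with viability scored as decrease in CellTiter-Glo ATP signal.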

Assay [7] in a line: TOX21_TR_RXR_BLA_Agonist_Followup_viability: Viability Assessment in the Tox21 Thyroid Hormone Receptor beta Retinoid X Receptor alpha (RXRa) Agonism Beta-lactamase (BLA) Follow-Up Assay (AID 2283970).
Assay [8] in a line: CCTE_Simmons_MITO_basal_resp_rate: CCTE's HepG2 Seahorse XF Respirometric Screening Assay at Basal Respiratory State, Simmons Lab (AID 2284001; active means hit-call score of the fitted dose curve at least 0.9, where 1 is the maximum; inactive means score below 0.9). Conditions: actives raise or lower the signal. In a few lines:
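Basal-phase OCR in HepG2 cells, read at 6-min intervals across a 72-min run, with test compound injected at 125 nM–100 uM final (7 points). Fitted both directions against DMSO; three biological replicates per concentration.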

A short description of assay [9]: CCTE_Harrill_HTTr_Apoptosis_MCF7: CCTE's 6-hour Apoptosis Assessment for the High-Throughput Transcriptomics (HTTr) Platform, in MCF-7 cells cultured in DMEM + 10% fetal bovine serum, Harrill Lab (AID 2284011; active means hit-call score of the fitted dose curve at least 0.9, where 1 is the maximum; inactive means score below 0.9). In a few lines:
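Read-out: CellEvent Caspase 3/7 Green signal by high content imaging, gain-of-signal indicating apoptosis. MCF-7 cells, DMEM + 10% FBS, eight-point dilution series, 6 h exposure. Curves fitted bidirectionally relative to DMSO negative control.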

The nature of assay [10]: CCTE_Shafer_MEA_acute_cross_correlation_area: CCTE's Neural Acute Assay for Area of Cross Correlation, Shafer Lab (AID 2284024; active means hit-call score of the fitted dose curve at least 0.9, where 1 is the maximum; inactive means score below 0.9;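 further: rat primary cortical neuron networks on 48-well MEA at DIV 13 or 15 with 40 min exposure; area under pooled inter-electrode spike cross-correlation near zero lag as percent change from own baseline; curves fitted for loss of cross-correlation area so actives lower synchrony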). The method, boiled down: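 Rat cortical cultures, DIV 13/15, MEA; spikes detected at 8x rms noise (300-5000 Hz band-pass). Compound 0.03-40 uM, ≥3 wells each. Readout: % change in pooled inter-electrode cross-correlation area vs own baseline; DMSO negative control.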

Assay [11] is described as follows: CCTE_Shafer_MEA_dev_firing_rate_mean: CCTE's Neural Network Formation Assay for Mean Firing Rate, Shafer Lab (AID 2284031; active means hit-call score of the fitted dose curve at least 0.9, where 1 is the maximum; inactive means score below 0.9). The method, boiled down:
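Steps: seed rat cortical cells (1.5 x 10^5/well) with laminin on PEI-coated MEA; dose day 0; record DIV 5/7/9/12, full media and compound exchange after DIV 5 and 9 recordings; compute well-mean firing rate AUC.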

The nature of assay [12]: CCTE_Shafer_MEA_dev_active_electrodes_number: CCTE's Neural Network Formation Assay for Number of Active Electrodes, Shafer Lab (AID 2284040).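 Further: potency for loss of active electrodes versus DMSO so lower counts are hits.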 In a few lines:
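Counts electrodes per well firing at least 5 spikes/min, recorded on days 5, 7, 9 and 12 in rat cortical cultures dosed continuously from plating (treatment refreshed DIV 5, 9). Value is the area under the curve over recordings, fitted downward relative to DMSO.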

The nature of assay [13]: CCTE_Shafer_MEA_dev_spike_duration_mean: CCTE's Neural Network Formation Assay for Mean Spike Duration, Shafer Lab (AID 2284051; active means hit-call score of the fitted dose curve at least 0.9, where 1 is the maximum; inactive means score below 0.9;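 further: mean network spike duration pooled as area under curve over DIV 5 to 12 recordings; potency for a decrease in mean network spike duration versus DMSO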). The method, boiled down:
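Rat cortical primary cultures, 48-well MEA (16 electrodes/well); compound from plating, renewed DIV 5, 9. Network spike duration (AxIS adaptive detector) recorded DIV 5/7/9/12, combined as trapezoidal AUC; loss direction vs DMSO.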

Assay [14] is described as follows: CCTE_Mundy_HCI_Cortical_Synap_Neur_Matur_BPCount: CCTE's Synaptogenesis and Neurite Maturation Assay in rat cortical cells for Branch Point Count, Mundy Lab (AID 2284211; active means hit-call score of the fitted dose curve at least 0.9, where 1 is the maximum; inactive means score below 0.9). The method, boiled down: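 HCI read-out of branch points from MAP2/synaptophysin/Hoechst immunofluorescence; rat cortical cultures, AraC DIV 5, dosing DIV 7, fixed DIV 12; fit in positive direction vs DMSO baseline.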

Assay [15] in a line: CCTE_Deisenroth_5AR_NBTE_acceptor: CCTE's 5alpha-reductase NanoBRET Target Engagement Assay - Autofluorescence Screen, Deisenroth Lab (AID 2284321; active means hit-call score of the fitted dose curve at least 0.9, where 1 is the maximum; inactive means score below 0.9;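 further: compound fluorescence in the acceptor channel under 460 nm excitation flags autofluorescence artifacts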). Particulars: actives raise or lower the signal. The method, boiled down: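 Autofluorescence check: ToxCast chemicals, nominal 100 uM, excitation 460 nm, n=3 runs. Acceptor fluorescence endpoint, bidirectional fit relative to DMSO. Parent assay in HEK293T, 5 h post-dose.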
(In general: BRET reads energy transfer from a luciferase to a nearby fluorophore.)

The next assay deals with SERPINA7 (gene 6906). Nature of the assay: CCTE_GLTED_hTBG: CCTE's human Thyroxine-binding Globulin (TBG) Inhibition Assay, Great Lakes Toxicology and Ecology Division (GLTED) Lab (AID 2284343).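 Further: active chemicals lower fluorescence versus DMSO baseline by displacing probe.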 In a few lines:
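Human thyroxine-binding globulin was exposed to each chemical for 2 hours, during which the ANSA probe could be displaced. Fluorescence was then measured at 380/475 nm, and loss of signal was analysed relative to DMSO.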

Regarding `CC(C)N(C(=O)CCl)c1ccccc1`, the half-maximal activity concentration (AC50) (usually the midpoint of the concentration-response curve, whichever way the signal moves) in the assay with AR (gene 367) is active: 25.3 µM.

In the case of `C[C@H]1CCCC(=O)CCC/C=C/c2cc(O)cc(O)c2C(=O)O1`, the AC50 in the assay with AR (gene 367) was active: 31.2 µM. In [1], the result was inactive.

For `COP(=O)(OC)O/C(=C\Cl)c1cc(Cl)c(Cl)cc1Cl`, the compound was called inactive in assay [2]. The concentration at half-maximal activity (AC50) in assay [3] was active: 19.8 µM.

For `CCCCC(CC)COC(=O)c1ccc(C(=O)OCC(CC)CCCC)c(C(=O)OCC(CC)CCCC)c1` (stereo not given), the AC50 in assay [4] was active: 40.9 µM.

Consider `CC(O)(CS(=O)(=O)c1ccc(F)cc1)C(=O)Nc1ccc(C#N)c(C(F)(F)F)c1` (stereo not given), for which the AC50 in assay [3] was active: 2.25 µM.

For `Brc1ccc(Oc2ccccc2)cc1`, the result in assay [5] was inactive.

Consider `CC1COC2(c3ccccc3Cl)c3cc(Cl)ccc3NC(=O)CN12` (stereo not given), for which the result in the assay with PGR (gene 5241) was inactive.

With `CCC1COC(Cn2cncn2)(c2ccc(Cl)cc2Cl)O1` (stereo not given), the outcome in assay [6] was inactive.

On to `O=C(Cl)OCCOCCOC(=O)Cl`, for which, in [7], the result was inactive.

With `CC1=C(C(=O)Nc2ccccc2)SCCO1`, the result in assay [8] was inactive.

On to `CNC(=O)CSP(=O)(OC)OC`, for which the result in assay [9] was inactive.

For the compound `CNC(=O)ON=C(SC)C(=O)N(C)C`, the outcome in assay [10] was inactive.

With `CCOP(=S)(OCC)OC(Cl)C(Cl)(Cl)Cl` (stereo not given), the compound was called inactive in assay [11].

With `COP(=S)(OC)SCn1nnc2ccccc2c1=O`, in [12], the AC50 was active: 23 µM.

Take `CCOP(=S)(OCC)Oc1cc(C)nc(C(C)C)n1`: the concentration at half-maximal activity (AC50) in [13] is active: 39.8 µM.

`CCSC(=O)N1CCCCCC1`: in [14], the AC50 is active: 13 µM.

Consider `CCCCCCCCCCCCCCCC[N+](C)(C)C`, for which the concentration at half-maximal activity (AC50) in [15] was active: 16.3 µM.

For `O=C(O)COc1nc(Cl)c(Cl)cc1Cl`, in the assay with SERPINA7 (gene 6906), the AC50 was active: 39.6 µM.
